Assay [1] addresses T1, breakpoint cluster region (BCR) (rat (endogenous in cultured hippocampal and cortical neurons)) (UniProt F1LXF1).
T1 sequence: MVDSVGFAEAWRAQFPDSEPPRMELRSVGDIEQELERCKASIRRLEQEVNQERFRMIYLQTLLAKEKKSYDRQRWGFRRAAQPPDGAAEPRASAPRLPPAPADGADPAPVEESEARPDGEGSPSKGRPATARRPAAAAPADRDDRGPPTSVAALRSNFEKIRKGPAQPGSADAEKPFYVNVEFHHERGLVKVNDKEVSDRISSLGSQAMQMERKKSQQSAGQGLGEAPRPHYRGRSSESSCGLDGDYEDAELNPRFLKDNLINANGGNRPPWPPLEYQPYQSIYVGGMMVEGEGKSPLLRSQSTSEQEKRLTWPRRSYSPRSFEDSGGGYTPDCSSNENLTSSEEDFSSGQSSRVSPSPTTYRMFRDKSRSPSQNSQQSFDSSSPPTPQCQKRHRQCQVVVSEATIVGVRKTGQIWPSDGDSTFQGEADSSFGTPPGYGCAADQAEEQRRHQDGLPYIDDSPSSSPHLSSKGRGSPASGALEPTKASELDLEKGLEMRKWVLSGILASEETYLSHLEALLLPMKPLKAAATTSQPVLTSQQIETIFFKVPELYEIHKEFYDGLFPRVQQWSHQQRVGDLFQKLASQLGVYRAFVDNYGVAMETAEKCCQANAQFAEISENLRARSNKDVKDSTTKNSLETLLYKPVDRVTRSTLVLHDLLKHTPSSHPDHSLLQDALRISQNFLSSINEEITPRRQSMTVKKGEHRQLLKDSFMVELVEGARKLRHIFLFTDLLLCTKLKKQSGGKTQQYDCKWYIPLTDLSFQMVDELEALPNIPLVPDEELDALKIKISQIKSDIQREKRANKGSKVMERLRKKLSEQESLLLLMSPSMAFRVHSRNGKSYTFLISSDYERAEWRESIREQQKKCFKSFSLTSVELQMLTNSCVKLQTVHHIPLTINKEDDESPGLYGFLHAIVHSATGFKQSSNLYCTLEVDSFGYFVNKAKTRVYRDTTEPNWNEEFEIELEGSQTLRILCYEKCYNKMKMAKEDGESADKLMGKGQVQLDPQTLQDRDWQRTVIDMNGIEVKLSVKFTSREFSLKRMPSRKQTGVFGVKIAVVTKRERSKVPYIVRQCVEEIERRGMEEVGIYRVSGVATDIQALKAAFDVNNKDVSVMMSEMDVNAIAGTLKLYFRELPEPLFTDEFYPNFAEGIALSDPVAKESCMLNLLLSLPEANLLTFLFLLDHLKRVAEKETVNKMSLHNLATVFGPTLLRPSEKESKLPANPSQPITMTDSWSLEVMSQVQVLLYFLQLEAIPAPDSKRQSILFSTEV
Kind of assay: co-IP; lysate of cultured rat hippocampal or cortical neurons (50 mM Tris pH 7.5, 1% Triton X-100, 150 mM NaCl, 1 mM EDTA), 2 μg antibody 2 h at 4 °C, protein G beads, Western blot; control conditions or OGD. In general terms: A western blot detects proteins with antibodies after separation by electrophoresis.

Assay [2] addresses T1, breakpoint cluster region (BCR) (rat (endogenous in cultured hippocampal and cortical neurons)). Kind of assay: co-IP; lysate of hippocampal neurons transduced with Sindbis virus expressing GFP (control) or PHCCEx-myc for 12 h; Tiam1 IP and BCR IP, blotted for NR1.

Results are given in words; binding and its absence hold for the method and conditions named. Binding seen in cells or lysates may run through a third protein. Some binding calls cover weakened binding; strength is not graded here.

For “NMDA receptor subunit NR1 (from UniProt P35439 19-938)”, the binding result in assay [1] and in assay [2] was “binds” throughout.

(Values after article PMC5724004.)
